Laboratory results reported in patent US9734282B2, “Biological dataset profiling of cardiovascular disease and cardiovascular inflammation” (DISCOVERX CORPORATION, priority 2005, dated 2017).

Key:
Settings in all cases: protein level drug-treated versus buffer control, 24 h
[1] = tested on: Peripheral Blood Mononuclear Cells + Endothelial Cells; assay: BioMAP LPS system (PBMC + endothelial cells, TLR4), cell-based ELISA; parameters: species or system human
Description: Human umbilical vein endothelial cells (HUVEC) were cultured according to standard methods, and plated into microtiter plates. Peripheral blood mononuclear cells (PBMC) were prepared from buffy coats from normal human donors according to standard methods. Experiments were performed by culturing HUVEC in microtiter plates in the presence of cytokines (IL-1b, 1 ng/ml; TNF-a, 5 ng/ml; and IFN-g, 100 ng/ml, or IL-4, 5 ng/ml and histamine, […]), activators (SAg, 20 ng/ml or LPS, 0.2 ng/ml), and/or PBMC (7.5×10^4 cells/well) for 24 h. Compounds were tested at the indicated concentrations. Compounds were prepared in the solvent as directed, added 1 hr before stimulation of the cells, and were present during the whole 24 hr stimulation period. The levels of readout parameters (proteins) were measured by cell-based ELISA. Briefly, microtiter plates are treated, blocked, and then incubated with primary antibodies or isotype control antibodies (0.01-0.5 mg/ml) for 1 hr. After washing, plates were incubated with a peroxidase-conjugated anti-mouse IgG secondary antibody or a biotin-conjugated anti-mouse IgG antibody for 1 hr followed by streptavidin-HRP for 30 min. Plates were washed and developed with TMB substrate and the absorbance (OD) was read at 450 nm (subtracting the background absorbance at 650 nm). Other readout parameters include: total protein levels (SRB assay), measuring the viability of peripheral blood mononuclear cells (incorporation of propidium iodide); and microscopic visualization. SRB was performed by staining cells with 0.1% sulforhodamine B after fixation with 10% TCA, and reading wells at 560 nm. PBMC viability was assessed by adding propidium iodide (10 mg/ml) to PBMC that had been cultured for 24 hours in the presence of activators and measuring the percentage of cells that incorporated dye by flow cytometry after 10 minutes. For data analysis, mean OD values (or other measurements) for each parameter were calculated from triplicate samples per experiment. […] 99% prediction envelopes (grey shading in Figures) were calculated for historical controls.

[2] = tested on: Peripheral Blood Mononuclear Cells + Endothelial Cells; assay: BioMAP SAg system (PBMC + endothelial cells, TCR), cell-based ELISA; parameters: species or system human
Description: (§1) Human umbilical vein endothelial cells (HUVEC) were cultured according to standard methods, and plated into microtiter plates. Peripheral blood mononuclear cells (PBMC) were prepared from buffy coats from normal human donors according to standard methods. Experiments were performed by culturing HUVEC in microtiter plates in the presence of cytokines (IL-1b, 1 ng/ml; TNF-a, 5 ng/ml; and IFN-g, 100 ng/ml, or IL-4, 5 ng/ml and histamine, […]), activators (SAg, 20 ng/ml or LPS, 0.2 ng/ml), and/or PBMC (7.5×10^4 cells/well) for 24 h. Compounds were tested at the indicated concentrations. Compounds were prepared in the solvent as directed, added 1 hr before stimulation of the cells, and were present during the whole 24 hr stimulation period.
(§2) The levels of readout parameters (proteins) were measured by cell-based ELISA. Briefly, microtiter plates are treated, blocked, and then incubated with primary antibodies or isotype control antibodies (0.01-0.5 mg/ml) for 1 hr. After washing, plates were incubated with a peroxidase-conjugated anti-mouse IgG secondary antibody or a biotin-conjugated anti-mouse IgG antibody for 1 hr followed by streptavidin-HRP for 30 min. Plates were washed and developed with TMB substrate and the absorbance (OD) was read at 450 nm (subtracting the background absorbance at 650 nm). Other readout parameters include: total protein levels (SRB assay), measuring the viability of peripheral blood mononuclear cells (incorporation of propidium iodide); and microscopic visualization. SRB was performed by staining cells with 0.1% sulforhodamine B after fixation with 10% TCA, and reading wells at 560 nm. PBMC viability was assessed by adding propidium iodide (10 mg/ml) to PBMC that had been cultured for 24 hours in the presence of activators and measuring the percentage of cells that incorporated dye by flow cytometry after 10 minutes.
For data analysis, mean OD values (or other measurements) for each parameter were calculated from triplicate samples per experiment. […] 99% prediction envelopes (grey shading in Figures) were calculated for historical controls.

[3] = tested on: Primary Human Endothelial Cells (HUVEC); assay: BioMAP 4H system (endothelial cells + IL-4 + histamine), cell-based ELISA
Description: as §1, with “Compounds were prepared in the solvent as directed, added 1 hr before stimulation of the cells, and were present during the whole 24 hr stimulation period.” left out
as §2, with “Briefly, microtiter plates are treated, blocked, and then incubated with primary antibodies or isotype control antibodies (0.01-0.5 mg/ml) for 1 hr. After washing, plates were incubated with a peroxidase-conjugated anti-mouse IgG secondary antibody or a biotin-conjugated anti-mouse IgG antibody for 1 hr followed by streptavidin-HRP for 30 min.” left out, “minutes. […]” for “minutes.”

CC(C)c1c(C(=O)Nc2ccccc2)c(-c2ccccc2)c(-c2ccc(F)cc2)n1CC[C@@H](O)C[C@@H](O)CC(=O)O [atorvastatin]
significant decreases: IL-1alpha level [1] | CD69 level [2]
increases: M-CSF level [1] | tissue factor level [1] | E-selectin level [2] | IL-8 level [2] | P-selectin level [3]
